Laboratory results reported in patent US10183080B2 (The Government of the United States of America, as …, priority 2016, dated 2019).

Experiment: general procedure: Boc solid-phase peptide synthesis
Conditions: whole synthesis

| Substance | outcome |
| --- | --- |
| [RRRRRRRRRFG]8-x-K′K′K′WP9G2H6 | the 4×, 8×, 16× peptide dendrimers could not be synthesized in linear SPPS fashion |
| [RRRRRRRRRFG]16-x-K′K′K′K′WP9G2H6 | the 4×, 8×, 16× peptide dendrimers could not be synthesized in linear SPPS fashion |
| [RRRRRRRRRFG]4-x-K′K′WP9G2H6 | the 4×, 8×, 16× peptide dendrimers could not be synthesized in linear SPPS fashion |
